No constants are given. Whether binding was seen depends on the method and setting. In cells and extracts the contact can be indirect. Here binding means that the protein was enriched with, or labelled near, the bait; the list need not be complete.
Biological target: Flag-FOXJ2 (forkhead box protein J2) (human) (UniProt Q9P0K8)
Assay: affinity purification with mass spectrometry; Flag-FOXJ2 immunoprecipitated with anti-Flag antibody from SK-Hep1 cells stably expressing Flag-FOXJ2 (vector control); complex analysed by LC-MS

By UniProt entry, the sequences of proteins in these tests, tags left out.
UniProt Q9P0K8: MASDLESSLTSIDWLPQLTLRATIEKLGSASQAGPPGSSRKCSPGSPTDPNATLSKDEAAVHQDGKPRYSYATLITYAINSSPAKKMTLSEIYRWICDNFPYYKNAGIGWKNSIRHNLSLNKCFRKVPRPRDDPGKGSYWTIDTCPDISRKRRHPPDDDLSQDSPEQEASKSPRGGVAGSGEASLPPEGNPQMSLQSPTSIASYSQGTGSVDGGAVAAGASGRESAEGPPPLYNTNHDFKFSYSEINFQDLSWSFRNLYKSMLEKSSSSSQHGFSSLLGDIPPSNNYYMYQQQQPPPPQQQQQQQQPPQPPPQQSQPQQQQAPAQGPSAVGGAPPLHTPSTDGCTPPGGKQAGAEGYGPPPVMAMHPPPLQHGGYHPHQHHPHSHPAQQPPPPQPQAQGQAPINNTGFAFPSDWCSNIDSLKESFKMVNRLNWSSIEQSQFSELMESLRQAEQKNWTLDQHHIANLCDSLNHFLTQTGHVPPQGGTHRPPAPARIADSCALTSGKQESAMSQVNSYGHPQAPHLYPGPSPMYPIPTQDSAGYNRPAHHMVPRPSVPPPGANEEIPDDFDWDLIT
UniProt P62633: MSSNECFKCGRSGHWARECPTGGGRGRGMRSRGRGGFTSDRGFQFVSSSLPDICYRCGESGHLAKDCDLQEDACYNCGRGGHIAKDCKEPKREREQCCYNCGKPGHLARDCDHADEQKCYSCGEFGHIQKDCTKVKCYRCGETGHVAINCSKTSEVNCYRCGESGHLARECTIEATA

binding: binds
Substance: cellular nucleic acid-binding protein (CNBP) (from UniProt P62633 1-177)

From publication PMC6193743, “Phosphoglucomutase 1 inhibits hepatocellular carcinoma progression by regulating glucose trafficking”
